# Results deposited as PubChem BioAssay AID720505 (Drosophila RNAi Screening Center, 2013)
# Aim: 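Genes needed for store-operated calcium entry in fly cells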 (primary screen)
# Cell system: Drosophila S2R+ cells
# Reagents: long dsRNA against Drosophila genes
# Challenge: thapsigargin (2 µM) in calcium-free buffer to empty internal stores, then 2 mM calcium added back
# Measured: 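Fluo-4 signal in 384-well plates read on a FLIPR after thapsigargin (2 µM, calcium-free) store depletion and 2 mM calcium add-back; unnormalised mean endpoint per well; screen run twice, selected wells retested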
# Reading the numbers: calcium signal and retest calcium signal: higher = more calcium entry after store depletion
# Active means: 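About 1500 genes called as lowering calcium entry, by varying amounts, judged against per-plate control wells with STIM1 as positive and Rho1 as negative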
# Calls: active = called as lowering calcium entry; inactive = not called
# In all, the deposit lists about 20,000 reagents; this is a random part of those with a known target gene and a result. Over the whole deposit, about 2,100 (10%) got an active call. 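Raw plate signals without normalisation; calls rest on control-based scores that were not deposited; replicate 2 separates called from uncalled poorly.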 The numbers tell different reagents against one gene apart. Not given: the amount of reagent, the time to read-out.
gene knocked down,dsRNA no.,"calcium signal, replicate 1","calcium signal, replicate 2","retest calcium signal, replicate 1","retest calcium signal, replicate 2",Call
xmas,1,83.9,112,,,inactive
xmas,2,76.6,195,,,inactive
csul (capsuleen),1,137,176,,,inactive
Dip-B (Dipeptidase B),1,113,123,,,inactive
CG11699,1,98,125,,,inactive
Dcr-2 (Dicer-2),1,156,149,,,inactive
CG13484,1,53,101,,,inactive
PpV (Protein phosphatase V),1,149,104,,,inactive
PpV (Protein phosphatase V),2,81.1,115,,,inactive
Nepl4 (Neprilysin-like 4),1,121,201,,,inactive
CG13559,1,157,182,,,inactive
CG4582,1,122,77.9,,,inactive
CG9702,1,185,201,,,inactive
Fs(2)Ket (Female sterile (2) Ketel),1,51.4,59.2,,,active
kumpel (kin of rumpel),1,240,148,,,inactive
kumpel (kin of rumpel),2,197,172,,,inactive
kumpel (kin of rumpel),3,259,150,,,inactive
kumpel (kin of rumpel),4,233,170,,,inactive
kumpel (kin of rumpel),5,247,116,,,inactive
kumpel (kin of rumpel),6,232,187,,,inactive
CG32544,1,94.7,109,,,inactive
Tk (Tachykinin),1,69.3,200,7471,185,active
Tk (Tachykinin),2,104,106,,,inactive
CG9777,1,98.7,127,,,inactive
Catsup (Catecholamines up),1,156,87.1,,,inactive
flr (flare),1,97.8,81.5,,,inactive
Nepl21 (Neprilysin-like 21),1,103,106,,,inactive
Cc2d2a (Coiled-coil and C2 domain containing 2A),1,160,126,,,inactive
Cc2d2a (Coiled-coil and C2 domain containing 2A),2,161,132,,,inactive
Gprk1 (G protein-coupled receptor kinase 1),1,77.2,8432,,,inactive
Gprk1 (G protein-coupled receptor kinase 1),2,81.8,6675,,,inactive
gcm (glial cells missing),1,220,151,,,inactive
CG13059,1,87.6,144,,,inactive
sced (scrambled),1,163,95.5,,,inactive
CG13501,1,152,76.9,,,inactive
blw (bellwether),1,81.9,136,,,inactive
CG15023,1,73.9,72.2,,,inactive
CG32354,1,62.9,86.9,,,active
CG32354,2,93.5,69.2,7336,104,inactive
CG32354,3,112,249,,,inactive
shn (schnurri),1,103,93.7,,,inactive
shn (schnurri),2,145,127,,,inactive
S-Lap8 (Sperm-Leucylaminopeptidase 8),1,128,122,103,115,inactive
S-Lap8 (Sperm-Leucylaminopeptidase 8),2,130,109,,,inactive
CG33543,1,98.1,122,,,inactive
CG33543,2,83.5,119,,,inactive
CG12853,1,69.6,57,130,199,active
CG12360 (retired record),1,72.8,158,,,inactive
CG34005,1,47.4,80.4,,,inactive
CG30105,1,87.4,104,,,inactive
CG12659,1,234,99.3,,,inactive
CG6244,1,183,237,,,inactive
jing,1,169,162,,,inactive
jing,2,86.1,115,,,inactive
jing,3,195,104,,,inactive
Or85c (Odorant receptor 85c),1,178,185,,,inactive
CG6951,1,64,112,,,active
BTBD9 (BTB (POZ) domain containing 9),1,96.1,94.3,,,inactive
BTBD9 (BTB (POZ) domain containing 9),2,84.8,162,,,inactive
stau (staufen),1,156,114,,,inactive
PAPLA1 (Phosphatidic Acid Phospholipase A1),1,117,186,,,inactive
PAPLA1 (Phosphatidic Acid Phospholipase A1),2,143,151,,,inactive
CG13950,1,99.3,173,,,inactive
CG11403,1,91.8,171,,,inactive
Sk2 (Sphingosine kinase 2),1,101,116,,,inactive
CG18294,1,126,159,,,inactive
CG7810,1,141,227,,,inactive
CG16717,1,106,116,,,inactive
"Polr2F (RNA polymerase II, I and III subunit F)",1,70.5,86.2,,,active
PGRP-LB (Peptidoglycan recognition protein LB),1,72.4,93.5,,,active
bcd (bicoid),1,116,105,,,inactive
Ptpmeg2 (Protein tyrosine phosphatase Meg2),1,64.6,92,,,active
Ptpmeg2 (Protein tyrosine phosphatase Meg2),2,74.2,89.8,,,active
Ptpmeg2 (Protein tyrosine phosphatase Meg2),3,88.2,133,,,inactive
CG10435,1,112,144,,,inactive
Sas-6 (Spindle assembly abnormal 6),1,180,212,,,inactive
CG15771,1,172,158,,,active
Cht2 (Chitinase 2),1,181,97,,,inactive
CG14354,1,155,149,,,inactive
CG15450,1,159,89.9,7123,138,inactive
temp (tempura),1,99,175,,,inactive
CG10214,1,238,232,,,inactive
EMC7 (ER membrane protein complex subunit 7),1,114,130,,,inactive
"DCTN6-p27 (Dynactin 6, p27 subunit)",1,68.2,126,102,100,active
"DCTN6-p27 (Dynactin 6, p27 subunit)",2,89.3,102,,,inactive
CG1582,1,144,78.7,,,inactive
Rcd-1 (Required for cell differentiation 1),1,76.3,234,,,active
melt (melted),1,86.5,61.2,,,inactive
Pi4KIIalpha (Phosphatidylinositol 4-kinase II alpha),1,114,138,,,inactive
Pi4KIIalpha (Phosphatidylinositol 4-kinase II alpha),2,155,240,,,inactive
FANCI (Fanconi anemia complementation group I),1,106,90.2,,,inactive
tra2 (transformer 2),1,140,159,,,inactive
CG11670,1,101,83.9,,,inactive
bun (bunched),1,164,84.5,,,inactive
bun (bunched),2,237,92.5,,,inactive
bun (bunched),3,111,156,,,inactive
bun (bunched),4,104,143,,,inactive
CG32708,1,97.1,78.5,,,inactive
CG4995,1,98.5,114,,,inactive
CG32987,1,91.7,159,,,inactive
CG3225,1,70.6,145,,,inactive
CG18262,1,205,84.5,,,inactive
nAChRalpha4 (nicotinic Acetylcholine Receptor alpha4),1,,,,,inactive
nAChRalpha4 (nicotinic Acetylcholine Receptor alpha4),2,,,,,active
CG34229,1,96.3,205,,,inactive
CG9512,1,123,109,,,inactive
